In PubChem BioAssay AID1347076 (National Center for Advancing Translational Sciences (NCATS), 2019):
The campaign covered roughly 400,000 compounds. About 13,000 (3.2%) were called active. Inconclusive results, whose numbers are uncertain, are shown with a selection of clear calls. Calls follow the shape of the dose curve; as a rule, active = well fitted cell-killing curve with a large enough effect; inconclusive = small, poorly fitted or top-dose-only effect, or effect the other way; inactive = flat fitted curve, though single readings scatter. A potency beside an inconclusive call is a rough fit, not a confirmed value.

Assay: qHTS assay for MDR1-selective chemotherapeutics: Primary screen using the drug-selected MDR subline cells KB-V1; also: nearly all actives have a fitted effect of over 60% in size
Details: KB-V1 MDR cells viability, CellTiter-Glo, 72 h; activity change, negative = cytotoxicity: at 46.1 µM (top of the series)
Method in brief: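 Cells of the MDR subline KB-V1 are plated, dosed with compound at multiple concentrations, and incubated 72 h at 37 degrees C; CellTiter-Glo is then added and luminescence read after 10 min.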
% is scaled to controls: 0 for no effect and ±100 for the full control effect; potency is read from the fitted curve at half-maximal effect.

| Compound | Potency | activity change, negative = cytotoxicity |
| --- | --- | --- |
| C=CCn1c(SCc2cc(C(C)=O)ccc2OCC)nc2ccccc2c1=O | active: 2.31 µM |  |
| O=S(=O)(Nc1ccc2c(c1)nc1n2CCN(Cc2ccccc2)C1)c1ccc(Cl)cc1 | inactive |  |
| Cc1ccc(C)c(N2CCN(C(=O)c3ccc(NS(=O)(=O)c4c(C)noc4C)cc3)CC2)c1 | inactive |  |
| CCOc1ccc2nc(N3C(=O)/C(=C/c4ccc(Cl)cc4)NC3=S)sc2c1 |  | inconclusive: -49.9% [cytotoxic] |
| Cc1onc(-c2ccccc2)c1C(=O)N=C(N)c1ccc(Cl)cc1 | inconclusive: 6.51 µM [cytotoxic, partial curve] |  |
| CCOCCCn1c(=S)[nH]c2cc3c(cc2c1=O)OCO3 | inconclusive: 18.4 µM [cytotoxic, single point] |  |
| CCCCN(C(=O)CSc1nc2ccccc2n1CC)C1CCS(=O)(=O)C1 (centres undefined) | active: 5.8 µM |  |
| CCN(CC)CCNC(=O)c1cc2c(-c3ccc(Cl)cc3)nn(C)c2s1 | inconclusive: 7.31 µM [cytotoxic, single point] |  |
| Cc1cccc(N2CCN(C(=O)CCNS(=O)(=O)c3ccc4c(c3)oc(=O)n4C)CC2C)c1 (centres undefined) | inconclusive: 23.1 µM [cytotoxic, partial curve, poor fit] |  |
| COc1ccc(-c2cc(C(F)(F)F)c(C#N)c(SCC(=O)Nc3cccc(C)c3)n2)cc1 | inconclusive: 23.1 µM [rising, single point] |  |
| CC12CCC(C(=O)Nc3ccc(Cl)cc3)([C@H](Br)C1=O)C2(C)C (some centres undefined) | inactive |  |
| NS(=O)(=O)c1ccc(N2CCN(C(=O)C3COc4ccccc4O3)CC2)nc1 (centres undefined) | inconclusive: 32.6 µM [rising, single point] |  |
| Cc1cc(NC(=O)CCC2COc3ccccc3O2)no1 (centres undefined) |  | inconclusive: 39.2% |
| O=C(O)CN1C(=O)S/C(=C\c2cccnc2)C1=O | inactive |  |
| CC(=O)Nc1ccc(S(=O)(=O)Nc2nc3ccccc3nc2Nc2ccc3ccccc3c2)cc1 | inconclusive: 14.6 µM [cytotoxic, partial curve] |  |
| Cc1cccc(N2CCN(S(=O)(=O)c3c(C)[nH]c(C)c3C(=O)N3CCCC3)CC2C)c1 (centres undefined) | inactive |  |
| COc1cccc(CC(=O)Nc2c(C(=O)N3CCN(c4ccccc4)CC3)oc3ccccc23)c1 | inconclusive: 14.6 µM [cytotoxic, partial curve, poor fit] |  |
| CC(Sc1nc(NC(C)(C)C)nc(N(C)C)n1)C(=O)Nc1ccccc1 (centres undefined) | inconclusive: 6.51 µM [cytotoxic, full curve] |  |
| CC(=O)N1CCN(C(=O)CNC(=O)c2cccs2)CC1 | inconclusive: 18.4 µM [rising, single point] |  |
| CC(C)(C)OC(=O)C[C@@H]1C/C=C\C[C@H](CC(=O)N(CCO)Cc2ccccc2)C(=O)NCCOC1=O | inactive |  |
| Cc1ccccc1SCC(=O)NNC(=O)c1ccccc1O | inactive |  |
| O=c1[nH]c(/C=C/c2ccc(Br)cc2)nc2ccccc12 | inactive |  |
| C/C(=N/NC(=O)COc1cc(C)ccc1C(C)C)C(=O)O | inactive |  |
| O=C1c2ccccc2-c2onc3ccc(N4CCCC4)c1c23 | inconclusive: 29.1 µM [cytotoxic, single point] |  |
| COCC(=O)N=Nc1c(O)[nH]c2ccccc12 | inconclusive: 23.1 µM [rising, partial curve] |  |

| Compound | Potency | activity change, negative = cytotoxicity |
| --- | --- | --- |
| CCOC(=O)c1c(NC(=O)C[n+]2ccc(Cc3ccccc3)cc2)sc(C)c1C | inconclusive: 0.82 µM [rising, full curve, poor fit] |  |
| CCOC(=O)CCc1c(C)c2cc3c(c(C)c2oc1=O)OCN(CCc1ccccc1OC)C3 | inconclusive: 6.51 µM [rising, full curve] |  |
| CCC(=O)N1CCc2cc(Br)cc(S(=O)(=O)NC3CCN(Cc4ccccc4)CC3)c21 | inconclusive: 6.51 µM [cytotoxic, partial curve] |  |
| COc1cccc(NC(=O)c2ccc3c(c2)OCCO3)c1 | inactive |  |
| COc1ccc(C2C(C(C)=O)=C(Nc3ccccc3)CC(C)(O)C2C(C)=O)cc1OC (centres undefined) | inactive |  |
| O=[N+]([O-])c1ccc2nc(NS(=O)(=O)c3ccc(F)cc3)sc2c1 |  | inconclusive: -1.29% |
| CCCCCOc1ccc(Br)cc1CSC(=N)N | active: 9.2 µM |  |
| CSCCC(NS(=O)(=O)c1ccc(C)cc1)C(=O)N1CCCCCCC1 (centres undefined) | active: 16.4 µM |  |
| Cc1cc(C)n2nc(C(=O)N/N=C/c3ccccc3Cl)nc2n1 | inactive |  |
| CC(C)C[C@H](NC(=O)c1nc[nH]c1C(=O)NC1CCN(C(=O)OC(C)(C)C)CC1)C(=O)OCc1ccccc1 | inconclusive: 29.1 µM [cytotoxic, single point] |  |
| Cc1ccc(CS(=O)(=O)c2ccccc2-c2nnc(-c3ccc(Cl)cc3)o2)cc1 | inconclusive: 11.6 µM [cytotoxic, partial curve, poor fit] |  |
| CCc1ccccc1NC(=O)CCS(=O)(=O)c1ccc2c(c1)CCCN2C(C)=O | inconclusive: 0.0082 µM [cytotoxic, full curve] |  |
| Brc1ccc(-c2cn3cc(Cc4ccccc4)sc3n2)cc1 | inactive |  |
| Cc1c(NC(=O)c2cc(-c3ccc(F)cc3)nc3ccccc23)c(=O)n(-c2ccccc2)n1C | inconclusive: 13 µM [cytotoxic, single point] |  |
| COc1cc(/C=C/C(=O)OCC(=O)N(C)Cc2ccccc2)cc(OC)c1OC | inconclusive: 29.1 µM [cytotoxic, single point] |  |
| Cn1cc(CCCC(=O)NCc2ccc(F)cc2)c2ccccc21 | inconclusive: 18.4 µM [cytotoxic, single point] |  |
| COc1ccc(C(=O)N2CCN(S(=O)(=O)c3ccc(Cl)cc3)CC2)cc1OC | active: 14.6 µM |  |
| CC(C)(C)SCCNC(=O)/C=C/c1ccc(F)cc1 | inactive |  |
| C#CCOC(=O)C(NC(=O)c1ccccc1)=C(C)C | inconclusive: 29.1 µM [cytotoxic, single point] |  |
| CC(C)S(=O)(=O)C1=NSC2=NC(=O)/C(=C\c3ccc(-c4ccccc4)o3)C(=N)N21 | active: 16.4 µM |  |
| C=CCSc1nsc(NC(=O)Nc2ccc(F)cc2)n1 | active: 20.6 µM |  |
| CC(C)(C)C(=O)NC(=S)Nc1ccc(Cc2ccncc2)cc1 | inactive |  |
| O=C(N/N=C/c1ccc(Cl)c(Cl)c1)c1ccc2nc[nH]c2c1 | inconclusive: 18.4 µM [cytotoxic, single point] |  |
| CC(C)(C)OC(=O)C[C@H]1C/C=C\C[C@@H](CC(=O)N[C@@H](CO)Cc2ccccc2)C(=O)NC[C@@H](c2ccccc2)OC1=O | inconclusive: 23.1 µM [rising, single point] |  |
| O=C(CCn1cccc1)NC1CCCc2ccccc21 (centres undefined) | inactive |  |

| Compound | Potency | activity change, negative = cytotoxicity |
| --- | --- | --- |
| CC(C)CC(=O)Nc1ccccc1N1CCN(C(=O)c2ccccc2)CC1 | inconclusive: 2.91 µM [cytotoxic, partial curve, poor fit] |  |
| Cc1cc(C)c(S(=O)(=O)N(CC(=O)N2CCCC2)C2CCCCC2)c(C)c1 | inconclusive: 4.11 µM [cytotoxic, full curve] |  |
| O=C(Nc1ccc(Cl)cc1C(=O)NCCN1CCOCC1)c1ccc(Cl)cc1Cl | active: 4.61 µM |  |
| Cn1nc(C(=O)Nc2ccc(Cl)c(S(=O)(=O)N3CCOCC3)c2)c2ccccc2c1=O | inactive |  |
| COC(=O)c1ccc(/C=N/N2CCN(Cc3ccc(C)cc3C)CC2)cc1 | active: 18.4 µM |  |
| CNC(=O)c1nc(C)n(-c2ccc(Cl)cc2Cl)n1 | inactive |  |
| Cc1cc(C)cc(N2C(=O)CC(N(C(=O)c3ccco3)c3cc(C)cc(C)c3)C2=O)c1 (centres undefined) | inconclusive: 4.11 µM [cytotoxic, full curve] |  |
| CC(=O)Nc1ccc(NC(=O)C(C)OC(=O)/C=C/c2cnc3ccccc3n2)cc1 (centres undefined) | inactive |  |
| CCCCC1(C)NC(=O)N(CC(=O)Nc2ccc(Cl)cc2C)C1=O (centres undefined) | inconclusive: 29.1 µM [cytotoxic, single point] |  |
| CCc1ccc(NC(=O)C2CCN(S(=O)(=O)c3ccc4c(c3)CC(C)N4C(C)=O)CC2)cc1 (centres undefined) | inactive |  |
| Cc1ccc(S(=O)(=O)c2ncccc2[N+](=O)[O-])cc1 | inconclusive: 29.1 µM [cytotoxic, single point] |  |
| COc1ccc(-c2cc(NC=O)c3ncc(-c4cccc(C(=O)NCCN(C)C)c4)n3c2)cc1 | inactive |  |
| O=C(CCC(=O)N1CCOc2ccccc21)NCc1cccs1 | inconclusive: 29.1 µM [rising, single point] |  |
| Nc1ncnc(Nc2ccc(F)cc2)n1 | inactive |  |
| CC(NCCC(c1ccccc1)c1ccccc1)c1ccccc1 (centres undefined) | inconclusive: 11.6 µM [cytotoxic, partial curve, poor fit] |  |
| CCc1ccc2[nH]c3nc(SCc4nnc(-c5ccccc5)o4)nnc3c2c1 | inactive |  |
| NS(=O)(=O)c1ccc(CNC(=O)c2ccccc2SCC(=O)N2CCCC2)cc1 | inactive |  |
| COc1ccc(CCNC(=O)c2ccc3nc(-c4ccco4)c(-c4ccco4)nc3c2)cc1OC | active: 7.31 µM |  |
| O=S(=O)(/N=C/c1ccccc1O)c1cccs1 | inactive |  |
| O=C(CCCCCNC(=S)Nc1ccc(Cl)cc1)C[N+](=O)[O-] | inactive |  |
| CC1=NNC(=O)C1CC(=O)N/N=C(\C)c1ccco1 (centres undefined) | inconclusive: 29.1 µM [rising, single point] |  |
| CCN1CCN(Cc2ccc(NC(=O)c3cc(NC(=O)c4cc5cccc(OC)c5o4)cc(OC)c3)cc2C(F)(F)F)CC1 | inconclusive: 29.1 µM [cytotoxic, single point] |  |
| COc1cc(CNn2c(C)n[nH]c2=S)cc(Cl)c1OCc1ccc(F)cc1 | inconclusive: 16.4 µM [cytotoxic, single point] |  |
| CC(=O)N1CCCc2cc(S(=O)(=O)N3CCCC(C(=O)Nc4ccc(F)cc4F)C3)ccc21 (centres undefined) | inconclusive: 16.4 µM [cytotoxic, single point] |  |
